Assay results as given in paper PMC5436757.

Sequences of proteins named here, by UniProt entry; tags and fusion partners are left off. A change or cut given only in a name is not applied to a line headed by its entry.
UniProt Q9RYE6: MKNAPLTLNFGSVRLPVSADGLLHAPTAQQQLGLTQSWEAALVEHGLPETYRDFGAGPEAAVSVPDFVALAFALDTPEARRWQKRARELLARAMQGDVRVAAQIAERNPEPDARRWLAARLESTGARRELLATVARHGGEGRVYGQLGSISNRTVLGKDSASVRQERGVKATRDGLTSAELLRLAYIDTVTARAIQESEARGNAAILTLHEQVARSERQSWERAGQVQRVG

Molecular target: DdrC (Deinococcus radiodurans R1 ATCC 13939) (UniProt Q9RYE6)
Assay: EMSA
Conditions: no shift at 40 nM DdrC, lower affinity than ss 67-mer, 3.3 nM DNA, DdrC up to 2.8 uM; Buffer A: 40 mM Tris-HCl pH 7.8, 5 mM MgCl2, 1.5 mM DTT, 50 mM NaCl, 12% glycerol; 4 C (15 min stated for plasmid/viral DNA); gels run at 4 C; recombinant protein; residues 1-231; protein details: C-terminal 6xHis (pET26b)

“CTGTTTAAGAAATTCACCTCGAAAGCAAGCTGATAAACCGATACAATTAAAGGCTCCTTTTGGAGCC (double strand) [oligo-67 ds]”: binds more weakly.

The comparison behind a weaker result is the experiment's own reference, which may not be listed here.
